Data: PubChem BioAssay AID1745846 (National Center for Advancing Translational Sciences (NCATS), 2022)
Screen size: about 1,400 compounds; about 30 (2%) were called active. Another 15% or so got no clear call; they are omitted. Calls come from the whole dose curve; as a rule, active = well fitted inhibition curve with a large enough effect; inconclusive = small, poorly fitted or top-dose-only effect; inactive = flat fitted curve, though single readings scatter. This is one part of the list.

Experiment: Firefly Luciferase Counterscreen for Inhibitors of ATXN expression
Details: luminescence; series mostly up to 57.5 µM; activity change, negative = inhibition: at the top concentration
Procedure, shortened: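 Recombinant firefly luciferase at 10 nM final in 50 mM Tris pH 7.5, 10 mM MgCl2, 0.05% BSA, 0.01% Tween20 with substrate; compounds up to 57 uM final, 10 min room temperature, end-point luminescence. Buffer-only wells define 100% inhibition.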
% is set by controls: 0 for no effect and ±100 for the full control effect; potency is the fitted concentration of half-maximal effect.

Row | SMILES | activity change, negative = inhibition | Potency
1 | Cc1csc2ncnc(NC3CCN(Cc4ccccc4)CC3)c12 | inactive: 1.59% | 
2 | Cc1c([N+](=O)[O-])cc(C(=O)Nc2ccc(Cc3ccncc3)cc2)cc1[N+](=O)[O-] | inactive: -9.2% | 
3 | CN(C)CCCNC(=O)/C=C/c1ccc(OCc2c(F)cccc2Cl)cc1 | inactive: -5.2% | 
4 | Cc1cnc(NC(=O)CCCc2nc3ccccc3s2)s1 | inactive: -11.5% | 
5 | Cc1nc2cc(NC(=O)CSc3nc4c(C)cccc4cc3C#N)ccc2s1 | inactive: 1.43% | 
6 | CSCC[C@H](NC(=O)OC(C)(C)C)C(=O)N/N=C/c1cccc2cccnc12 | inactive: -2.18% | 
7 | COc1ccc(N2CCN(C(=O)c3cc4c(C)nc5ccccc5c4o3)CC2)cc1 | inactive: -3.21% | 
8 | COc1ccc(-c2cc(C3CCN(c4ccc(C(C)=O)cc4[N+](=O)[O-])CC3)[nH]n2)cc1 | inactive: -6.65% | 
9 | CN(C)C(=O)CSc1nc(-c2ccccc2)nc2c1CCCC2 | inactive: 0.0311% | 
10 | Cc1cccc2c1-c1sc(C(=O)Nc3ccccc3N3CCN(C)CC3)cc1CO2 | inactive: 0.0801% | 
11 | CCOc1ccc(-n2c(-c3ccccc3)c[n+]3c2CCCCC3)cc1 | inactive: -2.5% | 
12 | O=C(c1ccoc1)N1CCN(c2cc(-c3cccnc3)nc3cc(-c4cccc(Cl)c4)nn23)CC1 | inactive: -16.4% | 
13 | C=CCn1c(COc2ccccc2)nnc1SCC(=O)N/N=C/c1cc(Cl)ccc1O | inactive: -4.62% | 
14 | CC[n+]1c(C=C2C=C(C)OC(C)=C2)sc2ccccc21 | inactive: -1.99% | 
15 | NNc1ccc(Cc2ccc(Cl)cc2Cl)nn1 | inactive: -4.55% | 
16 | CC1(C)Cc2c(c(-c3ccco3)nc3sc4c(NCCN5CCOCC5)ncnc4c23)CO1 | inactive: -2.09% | 
17 | CCOc1ccc(CN(C)c2nc(-c3cccnc3)nc3ccccc23)cc1OC | inactive: -9.84% | 
18 | O=[N+]([O-])c1ccc(NC(c2ccccc2)c2ccc3cccnc3c2O)cc1 (configuration not stated) | inactive: 0.892% | 
19 | O=C1c2cccc3c([N+](=O)[O-])ccc(c23)C(=O)N1c1ccc(Cl)cn1 | inactive: -1.44% | 
20 | Clc1cccc(-c2nc(NCc3cccnc3)c3ccccc3n2)c1 | inactive: -7.42% | 
21 | O=C(NCc1ccccc1)C1=C[C@@H](c2csc3ccccc23)C[C@@H](OCCCCO)O1 | inactive: -2.89% | 
22 | COc1ccc(O)c(/C=N/NC(=O)c2ccc(N3CCCC3=O)cc2)c1 | inactive: -5.46% | 
23 | C(=N\Nc1ccc2nncn2n1)/c1ccccn1 | inactive: -5.45% | 
24 | OC[C@@H]1CN(Cc2ccc(-c3ccccc3)cc2)C[C@H](n2cnc3c(NC4CCC4)ncnc32)O1 | inactive: -0.859% | 
25 | O=C1c2ccccc2NC(c2ccc(-c3cccc([N+](=O)[O-])c3)o2)N1O (configuration not stated) | inactive: -18.4% | 
26 | NC(Cc1ccc(Cl)cc1)c1csc(Nc2nccc(C(F)(F)F)n2)n1 (configuration not stated) | inactive: 0.694% | 

Structures from the list above that contain two or more sulfur atoms, in the order listed:
Row | SMILES | activity change, negative = inhibition | Potency
4 | Cc1cnc(NC(=O)CCCc2nc3ccccc3s2)s1 | inactive: -11.5% | 
5 | Cc1nc2cc(NC(=O)CSc3nc4c(C)cccc4cc3C#N)ccc2s1 | inactive: 1.43% | 

Later entries.

Row | SMILES | activity change, negative = inhibition | Potency
27 | CC(=O)N1CCN(c2ccc(Oc3ccc([N+](=O)[O-])c(C(F)(F)F)c3)cc2)CC1 | inactive: 0.994% | 
28 | O=C1C=CCC(/C=C/c2ccccc2)O1 (configuration not stated) | inactive: 0.0453% | 
29 | CCCCC(=O)NC(c1ccc(Cl)cc1)c1ccc2cccnc2c1O (configuration not stated) | inactive: -2.91% | 
30 | CC(=O)c1sc(C(C)(C)C)cc1NC(=O)/C=C/C(=O)O | inactive: -7.46% | 
31 | COc1ccc(C(=O)NNC(=S)NC(=O)C(C)(C)C)cc1 | inactive: -7.32% | 
32 | O=C(Oc1c(CN2CCOCC2)cc(Cl)c2cccnc12)c1ccccc1F | inactive: -1.47% | 
33 | COc1ccc(C(NCC(=O)NC(C)c2ccc(Cl)cc2)c2ccccc2)cc1 (configuration not stated) | inactive: -3.08% | 
34 | O=C(N/N=C/c1cc(Br)ccc1OC(=O)c1ccc(Br)cc1)c1ccncc1 | inactive: -15.6% | 
35 | C=CCN(C(=O)CSc1nc2c(sc3ccccc32)c(=O)n1CCN(CC)CC)c1ccccc1 | inactive: -0.689% | 
36 | C=C(C)Cn1c(SCC(=O)N/N=C/c2c(O)ccc3ccccc23)nc2ccccc2c1=O | inactive: -8.6% | 
37 | CC[C@@H]1C(c2cccc(Cl)c2)=NN(c2ccc(Br)cc2)[C@H]1C(=O)N1CCOC1=O | inactive: 2.19% | 
38 | O=C(c1ccco1)N1CCCC(c2nc(-c3ccc(S(=O)(=O)NCc4ccccc4)cc3)no2)C1 (configuration not stated) | inactive: 4.2% | 
39 | c1ccc2c(c1)C(=NC1CCCCC1)NC2=NC1CCCCC1 | inactive: 3.21% | 
40 | O=C(/C=C/c1cccs1)c1cc(Br)ccc1OC(=O)N1CCOCC1 | inactive: 0.0188% | 
41 | Cc1nnc(SCC(N)=O)n1CC1CCCO1 (configuration not stated) | inactive: 0.593% | 
42 | CCCC(=O)NC(c1ccc(Cl)cc1)c1ccc2cccnc2c1O (configuration not stated) | inactive: -3.74% | 
43 | NC(=O)c1cccc(-c2ccnc3c2CC(C(=O)Nc2cccc(Oc4ccccc4)c2)O3)c1 (configuration not stated) | inactive: -7.75% | 
44 | Cc1ccc(/C=N/NC(=O)C2=NNC(c3ccccc3)(c3ccccc3)C2)c(O)c1 | inactive: -2.77% | 
45 | CN(C)CCNc1ncnc2c1sc1nc(N3CCOCC3)c3c(c12)CC(C)(C)SC3 | inactive: 1.26% | 
46 | CCC(=O)NC(=S)NNC(=O)c1ccc(OC)cc1 | inactive: -13.5% | 
47 | COc1cccc(CNc2nc3cc(-c4ccc(C(=O)N5CCN(C)CC5)cc4)sc3c(=O)n2C)c1 | inactive: 0.258% | 
48 | COc1cc(/C=C/CN2CCC(C(=O)NC(c3ccc(F)cc3)c3ccc4ccccc4n3)CC2)ccc1OC(C)=O (configuration not stated) | inactive: -6.38% | 
49 | CC(C)N(Cc1ccccc1)C(=O)/C=C/c1ccccc1[N+](=O)[O-] | inactive: -5.53% | 
50 | N=c1c2c(n(Cc3cccc(Cl)c3)c3c1CCC3)CCCC2 | inactive: 2.72% | 
51 | CCN(c1ccccc1)S(=O)(=O)c1ccc(C(=O)N(CCCN(C)C)c2nc3c(C)cccc3s2)cc1 | inactive: 0.87% | 
52 | CCOC(=O)C(=CNc1ccc2c(c1)nnn2-c1ccc(Cl)cc1)C(=O)OCC | inactive: 4.05% | 

Row | SMILES | activity change, negative = inhibition | Potency
53 | O=C(Nc1ccccc1C(=O)Nc1nnc(C(F)(F)F)s1)c1ccccc1Cl |  | active: 22.4 µM
54 | CC[n+]1c(/C=C/c2c[nH]c3ccccc23)ccc2cc(C)ccc21 | inactive: -11.8% | 
55 | CC(=NNC(=O)c1ccncc1)c1ccc(O)cc1O | inactive: 4.15% | 
56 | COc1ccc(C2CC(c3ccc(C(F)(F)F)cc3)=NN2c2ccc(S(N)(=O)=O)cc2)cc1 (configuration not stated) | inactive: -1.14% | 
57 | O=C(CCc1ccccc1)NC(c1cccs1)c1cc(Cl)c2cccnc2c1O (configuration not stated) | inactive: -2.15% | 
58 | CCN(CC)CCNC(=O)c1ccc(NC(=O)c2ccccc2-c2ccc(C(F)(F)F)cc2)cc1 | inactive: 4.74% | 
59 | COc1ccc(/C=C2/CSC/C(=C/c3ccc(OC)c(OC)c3)C2=O)cc1OC | inactive: -3.2% | 
60 | O=C(c1ccc2c(c1)OCO2)N(Cc1cccs1)C1(C(=O)NC2CCCCC2)CCCCC1 | inactive: 1.67% | 
61 | CN1CCN(C(c2ccc(C(F)(F)F)cc2)c2ccc3cccnc3c2O)CC1 (configuration not stated) | inactive: -2.36% | 
62 | COC(=O)C(Cc1ccc(O)cc1)NC(=O)C(C)Oc1ccccc1 (configuration not stated) | inactive: 1.05% | 
63 | C/C(=N\N=C(N)N)c1ccc(Cl)cc1Cl | inactive: 4.59% | 
64 | Cc1cc(C(=O)N/N=C/c2cc(Br)ccc2OC(=O)c2ccccc2Cl)n[nH]1 | inactive: -3.39% | 
65 | CCN1C(=O)/C(=C/c2nc3ccccc3c(=O)n2-c2ccccc2)c2ccccc21 | inactive: 0.962% | 
66 | O=S(=O)(c1cccs1)N1CCN(c2ccnc3cc(Cl)ccc23)CC1 | inactive: 1.84% | 
67 | COc1cccc(/C=N/n2c(N)c(S(=O)(=O)c3cccs3)c3nc4ccccc4nc32)c1OC | inactive: -0.0288% | 
68 | CCN(C(=O)c1cc2c(C)nc3ccccc3c2o1)c1cc(Cl)ccc1OC | inactive: -2.96% | 
69 | COc1cccc(CC(=O)Nc2nc(-c3ccc(OC)c(OC)c3)cs2)c1 | inactive: -3.4% | 
70 | CCCCNCCCOc1cccc(Cl)c1Cl | inactive: 5.28% | 
71 | Cn1c(/C=C/c2cccc([N+](=O)[O-])c2)c([N+](=O)[O-])c(=O)n(C)c1=O | inactive: -5.03% | 
72 | Cc1cc(/C=N/n2cnnc2)c(C)n1-c1ccc(OCc2ccc(F)cc2)cc1 | inactive: -4.71% | 
73 | CCC(=O)NC(c1ccc(OC)cc1)c1cc(Cl)c2cccnc2c1O (configuration not stated) | inactive: -11% | 
74 | COc1ccc(CC(=O)N/N=C(\C)c2ccccn2)cc1 | inactive: -2.71% | 
75 | O=c1c2ccc(Cl)cc2nc(-c2cccc(C(F)(F)F)c2)n1O | inactive: -13.8% | 
76 | CCOc1ccc(S(=O)(=O)NCCC(=O)N2CC=C(c3ccccc3)CC2)cc1 | inactive: -2.65% | 
77 | O=[N+]([O-])c1ccccc1S(=O)c1ccccc1[N+](=O)[O-] | inactive: 1.65% | 
78 | Cc1nn(-c2ccccc2)c2nc(-c3cccs3)cc(C(=O)NN)c12 | inactive: 1.03% | 

Row | SMILES | activity change, negative = inhibition | Potency
79 | NNC(=O)c1sc2cc(C(F)(F)F)cnc2c1-c1cccs1 | inactive: -3.2% | 
80 | CN(C)CCCN(C(=O)c1ccc(S(=O)(=O)N2CCCC2)cc1)c1nc2ccc(Br)cc2s1 | inactive: -2.15% | 
81 | CC[C@@]1(O)C(=O)OCc2c1cc1n(c2=O)Cc2cc3c(CN(C)C)c(O)ccc3nc2-1 | inactive: -5.05% | 
82 | O=C(Nc1ccccc1N1CCN(C(=O)c2ccccc2)CC1)c1ccc(Br)o1 | inactive: -11.4% | 
83 | OC(c1cc(-c2cccc(Cl)c2)nc2ccccc12)C1CCCCN1 (configuration not stated) | inactive: -8.8% | 
84 | Cc1ccc(Cn2ncc3c(NN)ncnc32)cc1 | inactive: 0.539% | 
85 | CN1CCN(c2nc(Nc3ccc(F)cc3)nc(Nc3ccc(F)cc3)n2)CC1 | inactive: 1.19% | 
86 | O=C(OCCN1C(=O)c2cccc3c(N4CCOCC4)ccc(c23)C1=O)c1ccccc1Cl | inactive: -1.72% | 
87 | CCc1ccc(-n2cc(-c3ccc(F)cc3)[n+]3c2SCCC3)cc1 | inactive: 3.4% | 
88 | O=C(Nc1ccc(Cl)cc1)Nc1nc(-c2sccc2Br)cs1 | inactive: -1.61% | 
89 | COc1cccc2c1C(CO)N1C(C#N)C3CC(C(=O)O)C(C1C2)N3C (configuration not stated) | inactive: 0.962% | 
90 | Cc1onc(-c2ccccc2)c1C(=O)N/N=C/c1c[nH]c2ccccc12 | inactive: -8.22% | 
91 | CSc1sc(C(=O)NN)c2c1C1(CCC2)SCCS1 | inactive: -4.96% | 
92 | CC1(S(=O)(=O)O)CC(=O)c2ccccc2C1=O (configuration not stated) | inactive: -2.15% | 
93 | Cn1nnnc1Sc1ncnc2scc(-c3cccc(S(C)(=O)=O)c3)c12 | inactive: -1.18% | 
94 | COc1cnc(-c2ccccn2)nc1Oc1c(C)cccc1C | inactive: -1.47% | 
95 | CC(=O)NC(c1ccc(C(C)C)cc1)c1ccc2cccnc2c1O (configuration not stated) | inactive: -3.44% | 
96 | CC[n+]1ccccc1/C=C1\Sc2ccc(C)cc2N1C | inactive: -0.952% | 
97 | Cc1ccc(OCCNC(=O)c2cncc(Br)c2)cc1C | inactive: -5.36% | 
98 | Cc1c(C(=O)NCc2ccc(C(F)(F)F)cc2)sc(=O)n1Cc1cccc(F)c1 | inactive: -0.409% | 
99 | CN(/N=C/c1cc(Br)cc(Br)c1O)c1cccc(C(F)(F)F)n1 | inactive: -13.2% | 
100 | CCc1c(C)nc2ncnn2c1N1CCC(C(=O)Nc2ccc(C)cc2)CC1 | inactive: 0.0478% | 
101 | O=C(Nc1cnn(C23CC4CC(CC(C4)C2)C3)c1)c1cnn2c(C(F)(F)F)cc(-c3ccco3)nc12 | inactive: -6.3% | 
102 | COc1ccc(Cc2[nH]n3c(=O)cc(C(C)C)nc3c2-c2ccccc2)cc1 | inactive: -12.5% | 

Arranged by heavy-atom count (largest number first): 3 of the compounds above
Row | SMILES | activity change, negative = inhibition | Potency
100 | CCc1c(C)nc2ncnn2c1N1CCC(C(=O)Nc2ccc(C)cc2)CC1 | inactive: 0.0478% | 
99 | CN(/N=C/c1cc(Br)cc(Br)c1O)c1cccc(C(F)(F)F)n1 | inactive: -13.2% | 
79 | NNC(=O)c1sc2cc(C(F)(F)F)cnc2c1-c1cccs1 | inactive: -3.2% | 

A second format for two compounds above:
Row	SMILES	activity change, negative = inhibition	Potency
91	CSc1sc(C(=O)NN)c2c1C1(CCC2)SCCS1	inactive: -4.96%	
92	CC1(S(=O)(=O)O)CC(=O)c2ccccc2C1=O (configuration not stated)	inactive: -2.15%	
